Experimental data published in PubChem BioAssay AID2685 (National Center for Advancing Translational Sciences (NCATS), 2010).
The list shows a part of the results. Shown are side measurements of this screen, not its main read-out; they come without a call. The list favours compounds with an active or inconclusive main result. Words in brackets tell the shape of the fitted curve; partial curves, single points and poor fits give uncertain potencies.

Experiment: qHTS Assay for Lipid Storage Modulators in Drosophila S3 Cells;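 as to cell number change: cells counted by Cell Tracker Red CMTPX staining in the red channel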
Details: BODIPY lipid droplet fluorescence, 18-24 h; for cell number change: measured here: cell count max response, cells fed with added oleic acid
How it was run: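 Drosophila S3 cells got compounds at several concentrations plus oleic acid (400 uM solution). Laser-scanning cytometry with 488 nm excitation read lipid droplets at 500-530 nm and cells at 575-640 nm. Percent activity was relative to 20 uM Triacsin C.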

[1] = measured here: lipid fluorescence (Fed channel) AC50, cells fed with added oleic acid
[2] = measured here: cell number channel AC50, cells fed with added oleic acid

O=C(CC1C(=O)NCCN1Cc1ccccc1)NCCN1CCCCC1=O (stereo not drawn)
cell number change: -1.14% | AC50 [1]: 29.1 µM [falling, single point]

COc1ccc(CCC(=O)Nc2ccc(Br)cn2)cc1
cell number change: -12%

O=C(CN1C(=O)NC2(CCCc3ccccc32)C1=O)NCc1cccs1 (stereo not drawn)
cell number change: -26.4% | AC50 [1]: 6.51 µM [falling, single point]

CSc1ccc(CCNC(=O)CCc2nnc3ccc(N4CCCC4)nn23)cc1
cell number change: 2.69% | AC50 [1]: 3.26 µM [falling, single point]

O=C1CCc2cc(S(=O)(=O)N3CCCC3C(=O)NC3CCCCCCC3)ccc2N1 (stereo not drawn)
cell number change: 35.9% | AC50 [2]: 20.6 µM [rising, single point]

COCCCNc1ccnc2c(Cl)cccc12
cell number change: 24.8% | AC50 [1]: 29.1 µM [rising, single point]

Cc1sc2nc(C3CC3)nc(SCC(=O)NCc3ccco3)c2c1C
cell number change: -38.7% | AC50 [2]: 20.6 µM [falling, single point] | AC50 [1]: 29.1 µM [falling, single point]

Cc1oc(-c2cccc(Cl)c2)nc1CN1CCC(C(=O)N2CCN(c3ccccc3F)CC2)CC1
cell number change: -3.65% | AC50 [1]: 0.517 µM [rising, full curve, poor fit]

CCCN(CCC)C(=O)c1cc(-c2ccc3c(c2)OCO3)nc2ccccc12
cell number change: 148% | AC50 [2]: 4.61 µM [rising, partial curve] | AC50 [1]: 2.06 µM [rising, full curve, poor fit]

O=C(CN1CCC(n2nnc3ccccc32)CC1)Nc1ccc2c(c1)CCC2
cell number change: 27.9% | AC50 [2]: 3.66 µM [rising, single point] | AC50 [1]: 16.4 µM [rising, single point]

Cc1nnc(SCC(=O)N2CCN(c3ccccc3)CC2)n1C1CC1
cell number change: 6.46% | AC50 [1]: 0.103 µM [rising, partial curve, poor fit]

COc1ccc(OC)c(NC(=O)CSc2nnc(NC(=O)c3ccco3)s2)c1
cell number change: 0.652% | AC50 [1]: 0.184 µM [rising, full curve, poor fit]

CC(C)(C)C(=O)CN1C(=O)NC(C)(Cc2ccc3c(c2)OCO3)C1=O (stereo not drawn)
cell number change: -3.42%

O=C(O)/C=C/C(=O)Nc1cccc(C(F)(F)F)c1
cell number change: 8.87% | AC50 [1]: 0.0651 µM [rising, full curve, poor fit]

CCOc1cccc2sc(Cl)nc12
cell number change: 103%

Cn1ccsc1=NC(=O)c1ccccc1OC(F)F
cell number change: 13%

CN(CCO)S(=O)(=O)c1ccc2c(c1)C(=O)c1cc(S(=O)(=O)N(C)CCO)ccc1-2
cell number change: -13.5% | AC50 [1]: 2.91 µM [falling, partial curve, poor fit]

O=C(c1cccc(S(=O)(=O)Nc2cccc(C(F)(F)F)c2)c1)N1CCOCC1
cell number change: 29.8% | AC50 [2]: 1.3 µM [rising, full curve, poor fit] | AC50 [1]: 18.4 µM [rising, single point]

O=C(NCCO)/C(=C\c1ccc2c(c1)OCO2)NC(=O)c1ccc(Br)cc1
cell number change: 38.7% | AC50 [2]: 20.6 µM [rising, single point] | AC50 [1]: 18.4 µM [rising, partial curve]

Cc1cc(OCc2nnc(SCC(=O)O)n2-c2ccccc2)ccc1Cl
cell number change: 5.25% | AC50 [1]: 16.4 µM [rising, partial curve]

C/C(Cl)=C/CSc1nn2c(=O)c3ccccc3nc2s1
cell number change: 70.4% | AC50 [2]: 10.3 µM [rising, partial curve] | AC50 [1]: 6.51 µM [rising, single point]

COc1ccc(C(=O)N/C(=C\c2ccccc2)C(=O)NC(CC(C)C)C(=O)O)cc1 (stereo not drawn)
AC50 [1]: 0.00461 µM [falling, full curve, poor fit]

Cc1nc2ccc(F)cc2cc1C(=O)NCc1ccco1
cell number change: 99.1% | AC50 [2]: 16.4 µM [rising, partial curve] | AC50 [1]: 4.61 µM [rising, partial curve, poor fit]

COc1ccc(NC(=O)CSCC(=O)N(C)Cc2ccc(Cl)c(Cl)c2)cc1
cell number change: 12.1% | AC50 [1]: 0.00461 µM [rising, full curve, poor fit]

O=C(N/C(=C/c1ccc(F)cc1)C(=O)N1CCCCC1)c1ccco1
AC50 [1]: 25.9 µM [rising, single point]

Cc1cnc(NC(=O)c2cc3c(s2)CCCC3)s1
cell number change: 10.7% | AC50 [2]: 6.51 µM [rising, single point] | AC50 [1]: 7.31 µM [rising, partial curve]

Nc1nnc(Cc2cccc(Br)c2)s1
cell number change: 10.8%

COc1ccc(/C=N/NC(=O)c2[nH]ncc2Br)c(OC)c1
cell number change: 39.4% | AC50 [2]: 13 µM [rising, single point]

Cc1ccsc1C(=O)NC(C)c1ccccc1 (stereo not drawn)
cell number change: 17.6% | AC50 [1]: 1.46 µM [rising, partial curve]

COc1ccccc1NC(=O)CSc1ncn[nH]1
cell number change: 11.5% | AC50 [1]: 3.26 µM [rising, full curve, poor fit]

CCS(=O)(=O)C(=C(Nc1ccc(OC)cc1)Nc1ccc(OC)cc1)S(=O)(=O)CC
cell number change: -7.66% | AC50 [1]: 0.00411 µM [falling, full curve, poor fit]

CC/C(=N\Nc1nncc2ccccc12)c1ccc(F)cc1
cell number change: -4.17% | AC50 [1]: 1.16 µM [rising, single point]

Cc1ccc(NC(=O)Cn2nnc(C(=O)Nc3ccc(C)c(C)c3)c2N)cc1
AC50 [2]: 2.59 µM [rising, partial curve] | AC50 [1]: 2.31 µM [rising, partial curve]

CCc1ccc(OCCCOc2ccc(C=O)cc2)cc1
cell number change: 25.6%

Cc1ccc(-n2nc3c(N4CCC(C(=O)NCc5ccc(C)o5)CC4)nnc(C)c3c2C)cc1
cell number change: 1.81%

Fc1c(F)c(C(F)(F)F)c(F)c(F)c1N/N=C\c1cccs1
cell number change: -59% | AC50 [2]: 16.4 µM [falling, single point]

Cc1cccc(OCC(=O)O/N=C(\N)c2ccc(Cl)cc2)c1
cell number change: -73.6% | AC50 [2]: 13 µM [falling, partial curve] | AC50 [1]: 16.4 µM [falling, partial curve, poor fit]

CCCCNC(=O)Nc1ccccc1CC
cell number change: -13% | AC50 [1]: 0.103 µM [falling, single point]

CCOC(=O)C1=C(C)S/C(=C\N(C)C)C1=O
cell number change: -9.39% | AC50 [1]: 0.461 µM [falling, single point]
